Results deposited as PubChem BioAssay AID720505 (Drosophila RNAi Screening Center, 2013)
Aim: 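Genes needed for store-operated calcium entry in fly cells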 (primary screen). System: Drosophila S2R+ cells. Reagents: long dsRNA against Drosophila genes. Treatment: thapsigargin (2 µM) in calcium-free buffer to empty internal stores, then 2 mM calcium added back. Detection: 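Fluo-4 signal in 384-well plates read on a FLIPR after thapsigargin (2 µM, calcium-free) store depletion and 2 mM calcium add-back; unnormalised mean endpoint per well; screen run twice, selected wells retested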. Direction: calcium signal and retest calcium signal: higher = more calcium entry after store depletion. Call rule: 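Knock-downs counted as hits when calcium entry dropped relative to STIM1 positive and Rho1 negative controls present on each plate; roughly 1500 genes called, with reductions of differing size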. Meaning of the calls: active = called as lowering calcium entry; inactive = not called.
In all, the deposit lists about 20,000 reagents; below is an unselected part of those with a known target gene and a result. In the full data, about 2,100 (10%) were called active. 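Raw plate signals without normalisation; calls rest on control-based scores that were not deposited; replicate 2 separates called from uncalled poorly.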 Unmarked entries are inactive. A plus sign joins genes that one reagent is predicted to hit. Reagent sequences are not shown. Not given: the amount of reagent, the time to read-out.

no.	Gene	dsRNA	calcium signal, replicate 1	calcium signal, replicate 2	retest calcium signal, replicate 1	retest calcium signal, replicate 2
1	CG13578	DRSC04214	103	200		
2	CG14743	DRSC06479	88.6	187		
3	Spn42Dc	DRSC05010	76.5	81		
4	Jhbp15	DRSC15217	140	121		
5	retn	DRSC04679	104	142		
6	CG15708	DRSC06579	121	129		
7	Obp99c	DRSC16262	160	224		
8	Ythdf	DRSC16036	184	214		
9	Ythdf	DRSC16037	122 (active)	98		
10	Alh	DRSC12487	134	193		
11	Alh	DRSC12488	122	174		
12	ReepA	DRSC04572	174	95		
13	ReepA	DRSC22475	106	192		
14	CG15514	DRSC15053	123	104		
15	CG9004	DRSC08617	120	66.8		
16	CG15120	DRSC06542	140	149		
17	Obsc	DRSC04301	171	154		
18	Obsc	DRSC04302	133	148		
19	Obsc	DRSC04303	151	158		
20	Obsc	DRSC04430	118	127		
21	Obsc	DRSC22422	93.2	161		
22	clu	DRSC07181	115	82.9		
23	CG8840	DRSC00713	129	100		
24	Obp47a	DRSC06255	172	127		
25	Taf1	DRSC12607	170	155		
26	Abcd3	DRSC19488	72.1 (active)	60.7		
27	CG7800	DRSC16315	111	133		
28	PlexB	DRSC17177	141	161		
29	CG34462	DRSC10768	95.3	53.8		
30	CG7791	DRSC04891	120	134		
31	Nepl13	DRSC15632	127	143		
32	stet	DRSC08246	92.5	111		
33	stet	DRSC08283	65	134		
34	CG12491 + CG34105	DRSC04008	80	110		
35	CG12491 + CG34105	DRSC04124	106	168		
36	CG1902	DRSC06798	153	120		
37	cyc	DRSC11337	132	149		
38	CG13813	DRSC10068	62.1 (active)	123		
39	beat-IIIc	DRSC02438	99.7	126		
40	beat-IIIc	DRSC02949	130	207		
41	CG13594	DRSC04229	151	222		
42	CG13594	DRSC23254	109	169		
43	scrib	DRSC15809	114	138		
44	scrib	DRSC17051	67.3 (active)	108		
45	GlyT	DRSC04512	108	225		
46	sunz	DRSC12559	121	149		
47	gas	DRSC04521	89.3	119		
48	CG33252	DRSC19162	83.8	92.9		
49	Acp24A4	DRSC22352	109	227		
50	pod1	DRSC18362	204	125		
51	Sfp26Ad	DRSC00904	111	128		
52	CkIIbeta2	DRSC07361	159	147		
53	SdhB	DRSC05018	177	122	135	100
54	SdhB	DRSC21367	129	120		
55	CG14562	DRSC11723	109	233		
56	Ser6	DRSC20574	180	86.5		
57	MED6	DRSC16500	106	132		
58	Nadk2	DRSC07072	172	122		
59	cry	DRSC16928	181	129		
60	dpr13	DRSC06160	94.6	100		
61	dpr13	DRSC06464	98.2	105		
62	GABA-B-R1	DRSC22038	84.5	215		
63	Nup154	DRSC03384	114	79.3		
64	Nrg	DRSC18688	144	94.9		
65	CG40198	DRSC21068	91.2	128		
66	CG5693	DRSC02878	138	133		
67	CtsK2	DRSC06897	142	137		
68	EMC10	DRSC11850	84.7	172		
69	tbrd-3	DRSC04295	77	129		
70	Or42a	DRSC04912	230	204		
71	Osi7	DRSC12176	66.2 (active)	139		
72	sNPF	DRSC02309	92.6	89.8		
73	CG7579	DRSC10885	82.5	186		
74	2mit	DRSC14194	103	127		
75	2mit	DRSC15224	116	119		
76	Sec31	DRSC07131	115	131		
77	CG31869	DRSC02582	98	119		
78	CG31869	DRSC02674	118	136		
79	Iru	DRSC14457	141	99.4		
80	mri	DRSC08259	141	102		
81	CG12375	DRSC02163	163	204		
82	CG2246	DRSC15433	86	165		
83	Nsun2	DRSC18662	119	120	88.5	87.8
